Measured values reported in the supplement of paper PMC7666118.
The other results are listed elsewhere or left out.

Chains of the proteins cited; added tags and fusions are not shown. Lines headed by an entry give the natural chain unless they say otherwise; changes in a name come on top.
UniProt P41226: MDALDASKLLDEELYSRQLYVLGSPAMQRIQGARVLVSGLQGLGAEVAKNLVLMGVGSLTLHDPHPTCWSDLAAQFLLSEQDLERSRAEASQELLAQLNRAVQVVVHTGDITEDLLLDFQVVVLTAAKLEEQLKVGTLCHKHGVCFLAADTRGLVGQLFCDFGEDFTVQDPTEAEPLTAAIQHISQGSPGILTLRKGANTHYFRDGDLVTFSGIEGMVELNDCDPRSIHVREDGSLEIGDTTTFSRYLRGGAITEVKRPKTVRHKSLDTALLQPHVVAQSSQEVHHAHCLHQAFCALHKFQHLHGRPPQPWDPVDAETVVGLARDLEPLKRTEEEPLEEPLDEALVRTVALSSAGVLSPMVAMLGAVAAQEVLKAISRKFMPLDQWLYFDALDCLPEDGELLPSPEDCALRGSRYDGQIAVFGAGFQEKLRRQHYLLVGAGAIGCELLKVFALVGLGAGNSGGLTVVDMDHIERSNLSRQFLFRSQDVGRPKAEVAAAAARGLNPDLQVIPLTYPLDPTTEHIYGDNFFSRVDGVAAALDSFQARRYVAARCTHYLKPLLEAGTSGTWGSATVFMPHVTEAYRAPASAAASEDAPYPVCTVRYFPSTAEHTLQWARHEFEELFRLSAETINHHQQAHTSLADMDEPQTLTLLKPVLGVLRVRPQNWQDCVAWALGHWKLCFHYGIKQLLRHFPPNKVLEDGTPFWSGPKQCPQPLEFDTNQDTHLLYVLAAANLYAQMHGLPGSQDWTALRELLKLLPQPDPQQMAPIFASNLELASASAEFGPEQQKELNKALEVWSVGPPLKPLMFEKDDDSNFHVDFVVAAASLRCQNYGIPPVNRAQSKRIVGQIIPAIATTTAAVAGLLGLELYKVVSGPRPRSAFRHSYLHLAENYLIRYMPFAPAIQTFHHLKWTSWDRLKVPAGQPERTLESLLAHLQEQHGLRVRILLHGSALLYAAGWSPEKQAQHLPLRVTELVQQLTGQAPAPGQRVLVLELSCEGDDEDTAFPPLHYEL
UniProt Q6ZT12: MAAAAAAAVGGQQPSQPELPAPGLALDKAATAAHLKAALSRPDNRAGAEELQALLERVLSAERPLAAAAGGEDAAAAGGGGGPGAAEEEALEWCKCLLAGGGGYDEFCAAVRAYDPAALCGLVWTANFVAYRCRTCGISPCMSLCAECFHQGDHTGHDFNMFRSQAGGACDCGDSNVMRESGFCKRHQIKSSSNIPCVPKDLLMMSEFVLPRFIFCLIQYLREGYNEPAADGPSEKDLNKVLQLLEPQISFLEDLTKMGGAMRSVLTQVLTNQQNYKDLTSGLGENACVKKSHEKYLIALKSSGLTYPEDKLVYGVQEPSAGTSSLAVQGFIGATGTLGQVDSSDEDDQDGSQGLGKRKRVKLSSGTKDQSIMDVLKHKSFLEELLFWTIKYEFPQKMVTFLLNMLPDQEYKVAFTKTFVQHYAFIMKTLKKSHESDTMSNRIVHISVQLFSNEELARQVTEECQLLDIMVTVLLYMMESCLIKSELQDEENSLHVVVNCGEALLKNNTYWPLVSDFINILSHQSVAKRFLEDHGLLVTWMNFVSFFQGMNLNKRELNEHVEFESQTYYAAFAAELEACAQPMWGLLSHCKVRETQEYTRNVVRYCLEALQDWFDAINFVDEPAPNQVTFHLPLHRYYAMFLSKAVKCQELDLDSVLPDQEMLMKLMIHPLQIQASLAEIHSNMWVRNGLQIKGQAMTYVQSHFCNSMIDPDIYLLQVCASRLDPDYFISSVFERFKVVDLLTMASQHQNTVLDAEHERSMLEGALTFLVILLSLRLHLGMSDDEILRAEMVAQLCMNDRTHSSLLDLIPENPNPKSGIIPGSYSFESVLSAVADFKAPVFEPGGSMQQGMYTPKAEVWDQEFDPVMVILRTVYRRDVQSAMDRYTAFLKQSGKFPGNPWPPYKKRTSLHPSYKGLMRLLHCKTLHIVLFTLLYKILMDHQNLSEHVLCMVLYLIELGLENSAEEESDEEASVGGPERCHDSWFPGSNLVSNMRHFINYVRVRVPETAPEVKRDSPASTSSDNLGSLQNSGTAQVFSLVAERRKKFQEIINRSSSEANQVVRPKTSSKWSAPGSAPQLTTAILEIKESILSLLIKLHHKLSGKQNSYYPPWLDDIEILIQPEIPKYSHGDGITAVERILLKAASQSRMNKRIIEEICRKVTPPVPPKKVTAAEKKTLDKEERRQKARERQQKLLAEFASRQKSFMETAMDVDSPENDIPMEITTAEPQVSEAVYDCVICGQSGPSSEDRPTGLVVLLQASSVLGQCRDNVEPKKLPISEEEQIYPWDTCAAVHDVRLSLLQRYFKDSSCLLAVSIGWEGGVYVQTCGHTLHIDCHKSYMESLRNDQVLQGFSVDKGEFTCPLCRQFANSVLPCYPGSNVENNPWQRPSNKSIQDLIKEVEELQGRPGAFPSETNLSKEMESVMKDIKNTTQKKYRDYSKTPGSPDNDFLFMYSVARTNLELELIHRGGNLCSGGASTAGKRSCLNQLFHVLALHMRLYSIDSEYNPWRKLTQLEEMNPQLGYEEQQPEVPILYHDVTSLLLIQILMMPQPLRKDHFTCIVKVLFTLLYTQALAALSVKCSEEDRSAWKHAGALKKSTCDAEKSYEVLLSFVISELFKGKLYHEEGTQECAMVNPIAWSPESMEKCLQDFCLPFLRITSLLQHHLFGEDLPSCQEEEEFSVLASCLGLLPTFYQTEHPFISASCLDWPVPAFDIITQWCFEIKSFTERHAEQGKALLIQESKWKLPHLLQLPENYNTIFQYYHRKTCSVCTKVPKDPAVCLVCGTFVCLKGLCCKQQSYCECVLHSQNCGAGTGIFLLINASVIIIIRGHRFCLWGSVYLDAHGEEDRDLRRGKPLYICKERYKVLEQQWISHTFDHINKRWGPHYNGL
UniProt P14927: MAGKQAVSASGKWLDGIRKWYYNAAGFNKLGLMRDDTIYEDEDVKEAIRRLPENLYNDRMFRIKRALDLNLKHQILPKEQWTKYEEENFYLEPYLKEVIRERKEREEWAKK
UniProt Q15386: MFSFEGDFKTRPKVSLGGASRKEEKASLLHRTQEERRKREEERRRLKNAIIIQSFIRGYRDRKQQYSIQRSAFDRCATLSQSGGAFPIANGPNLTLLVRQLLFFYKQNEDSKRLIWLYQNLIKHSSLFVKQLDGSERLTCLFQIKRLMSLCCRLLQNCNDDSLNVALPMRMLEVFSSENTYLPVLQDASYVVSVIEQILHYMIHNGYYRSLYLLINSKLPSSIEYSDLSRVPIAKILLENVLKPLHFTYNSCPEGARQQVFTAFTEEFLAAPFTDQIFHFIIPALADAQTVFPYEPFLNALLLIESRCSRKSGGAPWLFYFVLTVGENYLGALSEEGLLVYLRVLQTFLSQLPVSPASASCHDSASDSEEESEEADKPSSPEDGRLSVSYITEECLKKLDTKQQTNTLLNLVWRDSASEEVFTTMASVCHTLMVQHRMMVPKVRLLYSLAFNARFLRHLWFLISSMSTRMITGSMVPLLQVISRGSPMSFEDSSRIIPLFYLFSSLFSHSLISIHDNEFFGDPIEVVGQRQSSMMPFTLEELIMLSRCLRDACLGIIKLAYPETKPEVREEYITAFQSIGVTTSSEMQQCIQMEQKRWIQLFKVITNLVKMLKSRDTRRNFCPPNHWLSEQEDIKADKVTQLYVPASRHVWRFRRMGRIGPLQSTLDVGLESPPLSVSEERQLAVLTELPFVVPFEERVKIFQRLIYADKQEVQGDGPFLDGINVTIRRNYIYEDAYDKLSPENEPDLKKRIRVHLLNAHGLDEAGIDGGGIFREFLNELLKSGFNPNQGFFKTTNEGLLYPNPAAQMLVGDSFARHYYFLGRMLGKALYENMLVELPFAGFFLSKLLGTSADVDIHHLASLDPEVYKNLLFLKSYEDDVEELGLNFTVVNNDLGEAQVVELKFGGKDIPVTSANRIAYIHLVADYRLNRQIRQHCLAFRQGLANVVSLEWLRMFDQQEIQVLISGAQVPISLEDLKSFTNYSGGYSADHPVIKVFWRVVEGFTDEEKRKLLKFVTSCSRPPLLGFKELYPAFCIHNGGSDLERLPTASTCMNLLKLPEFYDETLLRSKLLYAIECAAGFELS
UniProt Q8IWB7: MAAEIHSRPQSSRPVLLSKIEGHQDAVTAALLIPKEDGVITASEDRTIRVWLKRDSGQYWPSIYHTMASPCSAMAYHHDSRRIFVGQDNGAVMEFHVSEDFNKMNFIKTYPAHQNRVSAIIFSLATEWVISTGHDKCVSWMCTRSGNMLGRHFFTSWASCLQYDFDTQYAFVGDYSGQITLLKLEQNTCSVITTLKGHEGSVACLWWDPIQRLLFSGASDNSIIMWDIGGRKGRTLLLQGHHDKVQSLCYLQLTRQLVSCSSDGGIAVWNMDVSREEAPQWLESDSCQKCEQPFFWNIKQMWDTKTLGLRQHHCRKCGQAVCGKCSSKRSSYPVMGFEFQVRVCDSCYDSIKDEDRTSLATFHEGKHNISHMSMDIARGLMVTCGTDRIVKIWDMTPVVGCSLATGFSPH
UniProt P11441: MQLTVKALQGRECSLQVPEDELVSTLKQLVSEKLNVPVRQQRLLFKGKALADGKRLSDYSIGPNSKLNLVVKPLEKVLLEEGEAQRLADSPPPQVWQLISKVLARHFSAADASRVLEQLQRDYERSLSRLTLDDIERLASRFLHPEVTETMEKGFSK
UniProt O60763: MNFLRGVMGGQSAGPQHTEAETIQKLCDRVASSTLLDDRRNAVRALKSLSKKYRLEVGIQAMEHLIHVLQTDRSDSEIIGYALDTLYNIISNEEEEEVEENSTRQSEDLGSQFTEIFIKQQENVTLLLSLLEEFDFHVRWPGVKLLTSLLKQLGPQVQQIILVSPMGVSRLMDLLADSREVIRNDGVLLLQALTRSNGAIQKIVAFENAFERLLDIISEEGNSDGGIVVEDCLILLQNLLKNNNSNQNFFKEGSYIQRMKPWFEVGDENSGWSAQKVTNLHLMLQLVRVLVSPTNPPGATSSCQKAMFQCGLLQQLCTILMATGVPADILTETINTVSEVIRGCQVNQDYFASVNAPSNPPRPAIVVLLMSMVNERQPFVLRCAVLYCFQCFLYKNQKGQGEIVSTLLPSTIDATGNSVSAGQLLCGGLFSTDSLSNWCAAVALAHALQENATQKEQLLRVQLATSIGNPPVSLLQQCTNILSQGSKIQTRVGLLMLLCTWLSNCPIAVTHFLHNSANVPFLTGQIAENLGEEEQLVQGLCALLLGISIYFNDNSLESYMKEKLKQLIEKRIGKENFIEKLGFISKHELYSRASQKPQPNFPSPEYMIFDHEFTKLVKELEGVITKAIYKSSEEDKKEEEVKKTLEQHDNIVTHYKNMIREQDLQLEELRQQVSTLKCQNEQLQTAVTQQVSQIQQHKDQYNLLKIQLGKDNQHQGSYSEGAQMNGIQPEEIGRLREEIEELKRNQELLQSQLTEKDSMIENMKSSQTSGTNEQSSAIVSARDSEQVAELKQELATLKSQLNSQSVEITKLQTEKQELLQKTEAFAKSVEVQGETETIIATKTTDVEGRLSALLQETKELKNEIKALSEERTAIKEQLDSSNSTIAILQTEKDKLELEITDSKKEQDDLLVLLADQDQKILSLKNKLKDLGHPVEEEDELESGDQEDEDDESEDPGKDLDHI

Compound: COc1ccc(Cn2ccc3cc(C)c(C(=O)NO)cc32)cc1
Test: dose-dependent thermal stabilisation call (2D-TPP, DLPTP, 10% FDR) (binary (1 = stabilised)); higher = stabilised by the compound
Details: system: HL-60 intact cells; concentration range 0.04-10 µM
Protocol: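 2D thermal proteome profiling in intact HL-60 cells treated with BRD-3811 (0, 0.04, 0.29, 2, 10 uM) for 90 min at 37 C, then heated 3 min at one of 12 temperatures (42-63.9 C). Soluble protein was quantified by TMT10 MS. The value is the DLPTP call of the paper: dose-dependent thermal stabilisation over all temperatures at 10% FDR (F-test of a dose-response against a flat model); one experiment, one call per tested protein.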

Q: With UFD1L (UniProt Q92890) as the target, how does the “dose-dependent thermal stabilisation call” value read?
A: inactive: 0

Q: How did the “dose-dependent thermal stabilisation call” value turn out when UHRF1BP1 (UniProt Q6BDS2) was run?
A: inactive: 0

Q: Which “dose-dependent thermal stabilisation call” value does the source give for UBA7 (UniProt P41226) here?
A: inactive: 0

Q: For UBASH3B (UniProt Q8TF42), which “dose-dependent thermal stabilisation call” value is on record?
A: inactive: 0

Q: How did the “dose-dependent thermal stabilisation call” value turn out when WDR11 (UniProt Q9BZH6) was run?
A: inactive: 0

Q: For UBR3 (UniProt Q6ZT12), which “dose-dependent thermal stabilisation call” value is on record?
A: inactive: 0

Q: How did the “dose-dependent thermal stabilisation call” value turn out when VRK1 (UniProt Q99986) was run?
A: inactive: 0

Q: With UBE2N (UniProt P61088) as the target, how does the “dose-dependent thermal stabilisation call” value read?
A: inactive: 0

Q: Which “dose-dependent thermal stabilisation call” value does the source give for VPS39 (UniProt Q96JC1) here?
A: inactive: 0

Q: Which “dose-dependent thermal stabilisation call” value does the source give for TXNRD1 (UniProt Q16881) here?
A: inactive: 0

Q: With UQCRB (UniProt P14927) as the target, how does the “dose-dependent thermal stabilisation call” value read?
A: inactive: 0

Q: VAT1 (UniProt Q99536) was tested. Which “dose-dependent thermal stabilisation call” value did it give?
A: inactive: 0

Q: How did the “dose-dependent thermal stabilisation call” value turn out when UBE3C (UniProt Q15386) was run?
A: inactive: 0

Q: Which “dose-dependent thermal stabilisation call” value does the source give for TTRAP (UniProt O95551) here?
A: inactive: 0

Q: With WASH1 (UniProt A8K0Z3) as the target, how does the “dose-dependent thermal stabilisation call” value read?
A: inactive: 0

Q: For UGCGL2 (UniProt Q9NYU1), which “dose-dependent thermal stabilisation call” value is on record?
A: inactive: 0

Q: With TYK2 (UniProt P29597) as the target, how does the “dose-dependent thermal stabilisation call” value read?
A: inactive: 0

Q: Which “dose-dependent thermal stabilisation call” value does the source give for VBP1 (UniProt P61758) here?
A: inactive: 0

Q: WDFY1 (UniProt Q8IWB7) was tested. Which “dose-dependent thermal stabilisation call” value did it give?
A: inactive: 0

Q: For UBE2G1 (UniProt P62253), which “dose-dependent thermal stabilisation call” value is on record?
A: inactive: 0

Q: Which “dose-dependent thermal stabilisation call” value does the source give for UBAC1 (UniProt Q9BSL1) here?
A: inactive: 0

Q: With TUBG1 (UniProt P23258) as the target, how does the “dose-dependent thermal stabilisation call” value read?
A: inactive: 0

Q: Which “dose-dependent thermal stabilisation call” value does the source give for TXN (UniProt P10599) here?
A: inactive: 0

Q: UTRN (UniProt P46939) was tested. Which “dose-dependent thermal stabilisation call” value did it give?
A: inactive: 0

Q: For UTP15 (UniProt Q8TED0), which “dose-dependent thermal stabilisation call” value is on record?
A: inactive: 0

Q: Which “dose-dependent thermal stabilisation call” value does the source give for UPRT (UniProt Q96BW1) here?
A: inactive: 0

Q: For USP12 (UniProt O75317), which “dose-dependent thermal stabilisation call” value is on record?
A: inactive: 0

Q: Which “dose-dependent thermal stabilisation call” value does the source give for UTP6 (UniProt Q9NYH9) here?
A: inactive: 0

Q: How did the “dose-dependent thermal stabilisation call” value turn out when TUBE1 (UniProt Q9UJT0) was run?
A: inactive: 0

Q: With UBL4A (UniProt P11441) as the target, how does the “dose-dependent thermal stabilisation call” value read?
A: inactive: 0

Q: For UBE2F (UniProt Q969M7), which “dose-dependent thermal stabilisation call” value is on record?
A: inactive: 0

Q: For TTK (UniProt P33981), which “dose-dependent thermal stabilisation call” value is on record?
A: inactive: 0

Q: UQCRQ (UniProt O14949) was tested. Which “dose-dependent thermal stabilisation call” value did it give?
A: inactive: 0

Q: For USO1 (UniProt O60763), which “dose-dependent thermal stabilisation call” value is on record?
A: inactive: 0

Q: Which “dose-dependent thermal stabilisation call” value does the source give for UBE2E3 (UniProt Q969T4) here?
A: inactive: 0

Q: With UMPS (UniProt P11172) as the target, how does the “dose-dependent thermal stabilisation call” value read?
A: inactive: 0

Q: Which “dose-dependent thermal stabilisation call” value does the source give for UTP3 (UniProt Q9NQZ2) here?
A: inactive: 0

Q: With UBAP1 (UniProt Q9NZ09) as the target, how does the “dose-dependent thermal stabilisation call” value read?
A: inactive: 0

Q: Which “dose-dependent thermal stabilisation call” value does the source give for UBE2A (UniProt P49459) here?
A: inactive: 0

Q: Which “dose-dependent thermal stabilisation call” value does the source give for VPS26A (UniProt O75436) here?
A: inactive: 0
